The numbers were not newly measured in patent US5739385A, “Process for preparing optically active carboxylic acids” (Union Carbide Chemicals & Plastics Technology Corporation, priority 1995, dated 1998), which cites them from elsewhere.

The conditions of this data set: background, in words; cited from earlier work.

`COc1ccc2cc([C@@H](C)C(=O)O)ccc2c1` [R enantiomer]: the liver toxicity result is recorded as “liver toxin”.
